{"sequences": {"note": "By UniProt entry, the sequences of proteins in these tests, tags left out.", "TPX2, Q9ULW0, UniProt Q9ULW0, whole entry": "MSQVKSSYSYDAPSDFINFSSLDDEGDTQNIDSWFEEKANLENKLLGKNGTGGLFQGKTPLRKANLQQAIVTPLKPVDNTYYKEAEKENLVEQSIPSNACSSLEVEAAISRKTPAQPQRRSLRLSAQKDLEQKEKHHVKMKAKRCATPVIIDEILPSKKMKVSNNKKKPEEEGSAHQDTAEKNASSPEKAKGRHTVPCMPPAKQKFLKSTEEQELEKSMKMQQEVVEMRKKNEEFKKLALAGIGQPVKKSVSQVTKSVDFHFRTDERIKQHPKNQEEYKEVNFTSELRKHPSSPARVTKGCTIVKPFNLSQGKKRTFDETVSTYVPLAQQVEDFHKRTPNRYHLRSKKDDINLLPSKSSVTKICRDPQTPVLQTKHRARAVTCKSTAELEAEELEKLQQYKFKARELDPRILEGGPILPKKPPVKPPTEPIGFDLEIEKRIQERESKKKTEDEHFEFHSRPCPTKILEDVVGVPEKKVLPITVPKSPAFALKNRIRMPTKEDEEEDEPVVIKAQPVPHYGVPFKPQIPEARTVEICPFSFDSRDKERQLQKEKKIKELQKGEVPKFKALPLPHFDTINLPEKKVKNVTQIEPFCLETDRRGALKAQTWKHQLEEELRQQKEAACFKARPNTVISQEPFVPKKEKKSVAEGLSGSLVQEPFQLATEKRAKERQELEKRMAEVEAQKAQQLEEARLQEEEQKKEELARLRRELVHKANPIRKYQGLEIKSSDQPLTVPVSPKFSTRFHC", "WDR82, Q6UXN9, UniProt Q6UXN9, whole entry": "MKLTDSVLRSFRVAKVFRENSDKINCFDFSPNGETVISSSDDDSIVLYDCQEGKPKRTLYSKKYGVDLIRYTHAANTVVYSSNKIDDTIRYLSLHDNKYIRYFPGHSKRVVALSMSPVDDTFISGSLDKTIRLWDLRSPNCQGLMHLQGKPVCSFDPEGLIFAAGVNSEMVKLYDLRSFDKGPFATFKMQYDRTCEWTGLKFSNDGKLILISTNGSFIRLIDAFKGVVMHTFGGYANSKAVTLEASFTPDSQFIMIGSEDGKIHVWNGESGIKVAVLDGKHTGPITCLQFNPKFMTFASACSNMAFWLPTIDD"}, "source": "the supplement of paper PMC10032668", "assay_in_all_cases": "PRISMA enrichment of interactor (LFQ) in peptide spot vs all other peptide spots (log2 fold change); higher = stronger / more specific binding of the interactor to the peptide", "key": {"SMNDC1, O75940": {"target": "SMNDC1, O75940", "experimental": "(§1)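 PRISMA: 221 full-length sORF-encoded peptides (3-15 aa), plus SOS1/GLUT1 control peptides, were spot-synthesized on cellulose membranes in triplicate. Membranes were incubated with HEK293T lysate, and bound proteins were identified by LC-MS/MS with LFQ. Enrichment is the log2 fold change versus all other peptide spots; only significant interactors are listed (cutoff c=6, x0=2.8).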"}, "SNW1, Q13573": {"target": "SNW1, Q13573", "experimental": "as §1"}, "SPOUT1, Q5T280": {"target": "SPOUT1, Q5T280", "experimental": "as §1"}, "SRI, P30626": {"target": "SRI, P30626", "experimental": "as §1"}, "STRBP, Q96SI9": {"target": "STRBP, Q96SI9", "experimental": "as §1"}, "TACO1, Q9BSH4": {"target": "TACO1, Q9BSH4", "experimental": "as §1"}, "TAOK2, Q9UL54": {"target": "TAOK2, Q9UL54", "experimental": "as §1"}, "TIA1, P31483": {"target": "TIA1, P31483", "experimental": "as §1"}, "TIAL1, Q01085": {"target": "TIAL1, Q01085", "experimental": "as §1"}, "TK1, P04183": {"target": "TK1, P04183", "experimental": "as §1"}, "TLN1, Q9Y490": {"target": "TLN1, Q9Y490", "experimental": "as §1"}, "TNIK, Q9UKE5": {"target": "TNIK, Q9UKE5", "experimental": "as §1"}, "TOMM34, Q15785": {"target": "TOMM34, Q15785", "experimental": "as §1"}, "TOX4, O94842": {"target": "TOX4, O94842", "experimental": "as §1"}, "TPX2, Q9ULW0": {"target": "TPX2, Q9ULW0", "experimental": "as §1"}, "TRIM32, Q13049": {"target": "TRIM32, Q13049", "experimental": "as §1"}, "TRPT1, Q86TN4": {"target": "TRPT1, Q86TN4", "experimental": "as §1"}, "TXLNA, P40222": {"target": "TXLNA, P40222", "experimental": "as §1"}, "TXLNG, Q9NUQ3": {"target": "TXLNG, Q9NUQ3", "experimental": "as §1"}, "UTP14A, Q9BVJ6": {"target": "UTP14A, Q9BVJ6", "experimental": "as §1"}, "WDR11, Q9BZH6": {"target": "WDR11, Q9BZH6", "experimental": "as §1"}, "WDR82, Q6UXN9": {"target": "WDR82, Q6UXN9", "experimental": "as §1"}, "WTAP, Q15007": {"target": "WTAP, Q15007", "experimental": "as §1"}, "XRN2, Q9H0D6": {"target": "XRN2, Q9H0D6", "experimental": "as §1"}, "YRDC, Q86U90": {"target": "YRDC, Q86U90", "experimental": "as §1"}, "YTHDC2, Q9H6S0": {"target": "YTHDC2, Q9H6S0", "experimental": "as §1"}, "ZC3H15, Q8WU90": {"target": "ZC3H15, Q8WU90", "experimental": "as §1"}, "ZC3HAV1L, Q96H79": {"target": "ZC3HAV1L, Q96H79", "experimental": "as §1"}, "ZNF207, O43670": {"target": "ZNF207, O43670", "experimental": "as §1"}, "ZNF512, Q96ME7": {"target": "ZNF512, Q96ME7", "experimental": "as §1"}, "ZNF638, Q14966": {"target": "ZNF638, Q14966", "experimental": "as §1"}, "ZNF768, Q9H5H4": {"target": "ZNF768, Q9H5H4", "experimental": "as §1"}}, "note": "Some of the results follow. The list holds hits alone, and they repeat only in part.", "data": [{"binder": "MVDNFYF", "note": "[ASPN]", "values": [{"measurement": "PRISMA enrichment of interactor (log2)", "setting": "SMNDC1, O75940", "value": 6.57}, {"measurement": "PRISMA enrichment of interactor (log2)", "setting": "SNW1, Q13573", "value": 7.01}, {"measurement": "PRISMA enrichment of interactor (log2)", "setting": "SPOUT1, Q5T280", "value": 5.77}, {"measurement": "PRISMA enrichment of interactor (log2)", "setting": "SRI, P30626", "value": 6.08}, {"measurement": "PRISMA enrichment of interactor (log2)", "setting": "STRBP, Q96SI9", "value": 7.59}, {"measurement": "PRISMA enrichment of interactor (log2)", "setting": "TACO1, Q9BSH4", "value": 5.01}, {"measurement": "PRISMA enrichment of interactor (log2)", "setting": "TAOK2, Q9UL54", "value": 5.59}, {"measurement": "PRISMA enrichment of interactor (log2)", "setting": "TIA1, P31483", "value": 6.01}, {"measurement": "PRISMA enrichment of interactor (log2)", "setting": "TIAL1, Q01085", "value": 5.02}, {"measurement": "PRISMA enrichment of interactor (log2)", "setting": "TK1, P04183", "value": 3.9}, {"measurement": "PRISMA enrichment of interactor (log2)", "setting": "TLN1, Q9Y490", "value": 7.13}, {"measurement": "PRISMA enrichment of interactor (log2)", "setting": "TNIK, Q9UKE5", "value": 4.38}, {"measurement": "PRISMA enrichment of interactor (log2)", "setting": "TOMM34, Q15785", "value": 6.77}, {"measurement": "PRISMA enrichment of interactor (log2)", "setting": "TOX4, O94842", "value": 3.94}, {"measurement": "PRISMA enrichment of interactor (log2)", "setting": "TPX2, Q9ULW0", "value": 6.38}, {"measurement": "PRISMA enrichment of interactor (log2)", "setting": "TRIM32, Q13049", "value": 5.07}, {"measurement": "PRISMA enrichment of interactor (log2)", "setting": "TRPT1, Q86TN4", "value": 4.03}, {"measurement": "PRISMA enrichment of interactor (log2)", "setting": "TXLNA, P40222", "value": 6.63}, {"measurement": "PRISMA enrichment of interactor (log2)", "setting": "TXLNG, Q9NUQ3", "value": 6.47}, {"measurement": "PRISMA enrichment of interactor (log2)", "setting": "UTP14A, Q9BVJ6", "value": 6.04}, {"measurement": "PRISMA enrichment of interactor (log2)", "setting": "WDR11, Q9BZH6", "value": 5.85}, {"measurement": "PRISMA enrichment of interactor (log2)", "setting": "WDR82, Q6UXN9", "value": 4.11}, {"measurement": "PRISMA enrichment of interactor (log2)", "setting": "WTAP, Q15007", "value": 4.55}, {"measurement": "PRISMA enrichment of interactor (log2)", "setting": "XRN2, Q9H0D6", "value": 5.18}, {"measurement": "PRISMA enrichment of interactor (log2)", "setting": "YRDC, Q86U90", "value": 4.11}, {"measurement": "PRISMA enrichment of interactor (log2)", "setting": "YTHDC2, Q9H6S0", "value": 4.94}, {"measurement": "PRISMA enrichment of interactor (log2)", "setting": "ZC3H15, Q8WU90", "value": 5.26}, {"measurement": "PRISMA enrichment of interactor (log2)", "setting": "ZC3HAV1L, Q96H79", "value": 3.97}, {"measurement": "PRISMA enrichment of interactor (log2)", "setting": "ZNF207, O43670", "value": 4.28}, {"measurement": "PRISMA enrichment of interactor (log2)", "setting": "ZNF512, Q96ME7", "value": 5.43}, {"measurement": "PRISMA enrichment of interactor (log2)", "setting": "ZNF638, Q14966", "value": 7.89}, {"measurement": "PRISMA enrichment of interactor (log2)", "setting": "ZNF768, Q9H5H4", "value": 5.97}]}]}
